US12220465B2, “Compositions and methods for targeted treatment and imaging of cancer or tumors” (Washington University, priority 2018, dated 2025)

Tested on: EPCs
Assay: ICP-MS detection of Titanium and boron in loaded EPCs
Assay type: cell-based

N[C@@H](Cc1ccc(B(O)O)cc1)C(=O)O [BPA, 4-Borono-L-phenylalanine]
loading of EPCs confirmed by presence of Titanium or boron (ICP-MS): actually loaded with boron

[Cl-].[Cl-].[Ti+4].c1cc[cH-]c1.c1cc[cH-]c1 [Titanocene]
loading of EPCs confirmed by presence of Titanium or boron (ICP-MS): actually loaded with Titanocene | cellular content of Titanium in EPCs (after treatment with nontoxic concentration range of Tc, maximum reached): 5 ng Titanium/mg EPC's
